From PubChem BioAssay AID1347072 (National Center for Advancing Translational Sciences (NCATS), 2019)
The campaign covered roughly 44,000 compounds. Fewer than 10 were called active. Inconclusive results, whose numbers are uncertain, are shown with a selection of clear calls. Calls come from the whole dose curve; as a rule, active = well fitted curve in the direction sought with a large enough effect; inconclusive = small, poorly fitted or top-dose-only effect, or another doubt; inactive = no such curve, though single readings can be large or run the other way. A potency beside an inconclusive call is a rough fit, not a confirmed value.

Sequences of proteins named here, by UniProt entry; tags and fusion partners are left off. A change or cut given only in a name is not applied to a line headed by its entry.
UniProt P51570: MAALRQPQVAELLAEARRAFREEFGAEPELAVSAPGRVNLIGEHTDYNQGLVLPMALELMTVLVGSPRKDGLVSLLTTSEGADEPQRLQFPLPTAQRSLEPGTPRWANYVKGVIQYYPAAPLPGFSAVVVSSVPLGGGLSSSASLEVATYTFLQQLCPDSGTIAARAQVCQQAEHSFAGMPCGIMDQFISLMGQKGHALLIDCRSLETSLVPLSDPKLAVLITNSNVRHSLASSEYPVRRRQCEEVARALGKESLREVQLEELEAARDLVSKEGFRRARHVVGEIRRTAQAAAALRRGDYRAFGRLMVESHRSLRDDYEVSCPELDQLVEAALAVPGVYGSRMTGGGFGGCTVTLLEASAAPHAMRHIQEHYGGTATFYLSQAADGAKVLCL

molecular target: Galactokinase (Homo sapiens) (UniProt P51570); test: qHTS Assay for Inhibitors of Human Galactokinase (GALK): NCGC Sytravon Library Screen; details: recombinant GALK, Kinase-Glo ATP luminescence, 1 h; series mostly up to 57.5 µM
Procedure, shortened: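 Luminescent ATP-depletion readout (Kinase-Glo Plus, 10 min) after 1 h RT reaction of 5 nM GALK, 35 uM ATP, 100 uM galactose, pH 8.0 HEPES buffer. Decreased kinase activity scored as inhibition.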

Structure (SMILES)	Potency
CC1=C(C(N)=O)C(c2ccccc2F)n2nc(-c3ccc(Cl)cc3)nc2N1 (configuration not stated)	inconclusive: 39.8 µM [inhibitor, partial curve, poor fit]
Cc1ccc(CNC(=O)c2cccc(-n3cnc4cccnc43)c2)cc1	inconclusive: 1.12 µM [inhibitor, full curve, poor fit]
COc1ccc(-c2noc(-c3ccc(N4CCC(C)CC4)c([N+](=O)[O-])c3)n2)cc1OC	inconclusive: 31.6 µM [inhibitor, partial curve, poor fit]
COc1ccc(-c2cc(=O)oc3c4c(ccc23)OCN(Cc2cccc(OC)c2)C4)cc1	inconclusive: 28.2 µM [inhibitor, partial curve, poor fit]
Cc1cc(C)c2c(=O)c3c(oc2c1)C(=O)N(Cc1ccco1)C3c1ccc(F)cc1 (configuration not stated)	inconclusive: 39.8 µM [inhibitor, partial curve, poor fit]
CCOCCCNC(=O)c1[nH]c2cc(OC)ccc2c1Sc1ccccc1	inconclusive: 0.891 µM [inhibitor, full curve, poor fit]
Cc1cccc(N(CC(=O)Nc2cccc(Cl)c2C)S(C)(=O)=O)c1C	inactive
Cc1cccc(CS(=O)(=O)Cc2ccc(C(=O)NC(C)c3ccccc3)o2)c1 (configuration not stated)	inconclusive: 11.2 µM [inhibitor, partial curve, poor fit]
CCN(CC)C(=O)Cn1c(=O)n(CCCCCC(=O)NCc2ccccc2)c(=O)c2sccc21	inactive
CCOc1cc(/C=C(\C#N)C(=O)Nc2ccccc2C)ccc1OCc1cc(=O)n2nc(CC)sc2n1	inactive
Cc1ccc(NC(=O)CSc2nc(-c3cccs3)cc(C(F)(F)F)n2)cc1C	inconclusive: 44.7 µM [inhibitor, partial curve, poor fit]
CCCn1c(=O)c2c(nc3n2CCN3c2ccc(C)cc2)n(C)c1=O	inconclusive: 22.4 µM [inhibitor, partial curve, poor fit]
Cc1ccc(CN(C(=O)COc2ccc(Cl)cc2C)C2CCS(=O)(=O)C2)o1 (configuration not stated)	inactive
CC(=O)Nc1ccc(Nc2nc3c(S(=O)(=O)c4cccc(Cl)c4)nnn3c3ccsc23)cc1	inconclusive: 0.562 µM [inhibitor, full curve, poor fit]
CCCCCOc1ccc(NC(=O)Cc2csc(C)n2)cc1	inactive
COCCNc1oc(-c2ccc(COc3ccc(OC)cc3)o2)nc1C#N	inconclusive: 2.82 µM [inhibitor, full curve, poor fit]
O=C(NCCc1csc(-c2ccc(F)cc2)n1)c1cccs1	inactive
Cc1ccc(C)c(Nc2cc(C(=O)NCCCN(C)C3CCCCC3)c3ccccc3n2)c1	inactive
COc1cc(OC)c(NC(=O)c2c(C)oc3nc(C)nc(N4CCOCC4)c23)cc1Cl	inactive
Cc1oc(-c2cccc(Cl)c2)nc1CSc1nnc(C)n2c1cc1occc12	inconclusive: 1.58 µM [inhibitor, partial curve, poor fit]
COc1ccc(Nc2nc3ccccc3nc2NS(=O)(=O)c2ccc(Cl)cc2)cc1OC	inactive

Structure (SMILES)	Potency
Cn1cnc2c(=O)oc3ccc(S(=O)(=O)N4CCN(c5ccccc5F)CC4)cc3c21	inconclusive: 0.126 µM [inhibitor, full curve, poor fit]
CC(=O)c1ccc(N2CCN(C(=O)c3cc4c(s3)-c3ccccc3OC4)CC2)cc1	inconclusive: 7.94 µM [inhibitor, partial curve, poor fit]
CCOc1ccccc1CNC(=O)CCn1ccc2cc(S(=O)(=O)N3CCCCC3)ccc21	inconclusive: 1.26 µM [inhibitor, partial curve, poor fit]
CCc1noc(-c2ccc(N(C)Cc3ccc(OC)cc3)c([N+](=O)[O-])c2)n1	inconclusive: 0.158 µM [inhibitor, full curve]
CCN(CC)CCNC(=O)c1[nH]c2ccccc2c1Sc1ccc(Cl)cc1	inconclusive: 1.26 µM [inhibitor, full curve, poor fit]
Cc1ccc(C)c(NC(=O)c2ccc3c(c2)CCN3S(=O)(=O)c2ccccc2)c1	inconclusive: 39.8 µM [inhibitor, partial curve, poor fit]
N#Cc1c(NC(=O)CS(=O)(=O)c2ccc(Cl)cc2)sc2c1CCCCC2	inconclusive: 35.5 µM [inhibitor, partial curve, poor fit]
COc1ccc2c(CNCCc3ccccc3OC)c(C(=O)O)n(Cc3ccc(F)cc3Cl)c2c1	inconclusive: 0.891 µM [inhibitor, full curve, poor fit]
Cc1ccc(S(=O)(=O)Nc2nc3n(n2)C(c2ccc(Cl)cc2)C=C(c2ccccc2)N3)cc1 (configuration not stated)	inactive
Cc1cccc(NC(=O)c2ccc(F)c(S(=O)(=O)N3CCN(c4ccc(F)cc4)CC3)c2)c1	inactive
CCOc1ccccc1NC(=O)C(=O)NCC(c1cccnc1)N1CCN(c2ccccc2)CC1 (configuration not stated)	inconclusive: 7.08 µM [inhibitor, partial curve, poor fit]
Clc1ccc(-c2noc3ncnc(N4CCCCC4)c23)cc1	inactive
Cc1ccc(Cl)cc1-n1ncc2c(NCCC3=CCCCC3)ncnc21	inactive
O=S(=O)(Nc1cccc(-c2ccc(N3CCCCC3)nn2)c1)c1ccc(F)cc1F	inactive
CCC(C(=O)NCCc1ccc(SC)cc1)n1nc(C)c2c(C)n(-c3ccc(C)cc3)nc2c1=O (configuration not stated)	inactive
O=C(Nc1ccccc1)N(Cc1cccs1)c1ccc(Cl)cc1	inconclusive: 5.01 µM [inhibitor, full curve, poor fit]
CCOc1ccc(C2=NC(c3cccs3)=Nc3ccc(CC)cc3N2)cc1OCC	inconclusive: 39.8 µM [inhibitor, partial curve, poor fit]
Cc1ccc(C(=O)c2sc(Nc3ccccc3)c(S(=O)(=O)c3ccccc3)c2N)c(C)c1	inconclusive: 44.7 µM [inhibitor, partial curve, poor fit]
Cc1cccc(CS(=O)(=O)c2ncc(Cl)c(C(=O)Nc3nnc(C(C)C)s3)n2)c1	inconclusive: 39.8 µM [inhibitor, partial curve, poor fit]
CC(C)(C)C1CCc2c(sc(NC(=O)Cn3nnc(-c4ccccc4Cl)n3)c2C#N)C1 (configuration not stated)	inactive
COc1cccc(C(=O)Nc2nc3nc(-c4ccccc4)cc(=O)n3[nH]2)c1	inconclusive: 39.8 µM [inhibitor, partial curve, poor fit]

Part of the list above, with each value named.
Cc1cccc(NC(=O)c2ccc(F)c(S(=O)(=O)N3CCN(c4ccc(F)cc4)CC3)c2)c1
  Potency: inactive
CCOc1ccccc1NC(=O)C(=O)NCC(c1cccnc1)N1CCN(c2ccccc2)CC1 (configuration not stated)
  Potency: inconclusive: 7.08 µM [inhibitor, partial curve, poor fit]

Continuation.

Structure (SMILES)	Potency
COc1ccccc1NC(=O)CSc1ccc(-c2ccccn2)nn1	inconclusive: 1.12 µM [inhibitor, full curve, poor fit]
O=C(CN1C(=O)C2(SCC(=O)N2c2ccc(F)cc2)c2ccccc21)NC1CCCCC1 (configuration not stated)	inconclusive: 3.16 µM [inhibitor, partial curve, poor fit]
CCOC(=O)c1c(S(=O)(=O)N2CCCC(C(=O)N3CCN(c4cc(C)ccc4C)CC3)C2)c(C)n(C)c1C (configuration not stated)	inconclusive: 44.7 µM [inhibitor, partial curve, poor fit]
CCCC(=O)N1c2ccccc2-c2nnc(SC)nc2OC1c1sccc1C (configuration not stated)	inconclusive: 0.794 µM [inhibitor, full curve, poor fit]
Cc1ccc(NC(=O)Cn2nc(C)c3nn(-c4ccc(Cl)cc4)c(C)c3c2=O)cc1F	inconclusive: 39.8 µM [inhibitor, partial curve, poor fit]
O=C(NCCS(=O)(=O)N1CCN(c2ccc(F)cc2)CC1)c1cc(=O)c2ccccc2o1	inconclusive: 1.12 µM [inhibitor, full curve, poor fit]
O=C(CC1Oc2ccc(Cl)cc2NC1=O)NCc1ccccc1 (configuration not stated)	inactive
COc1ccc(NC(=O)N2CCc3c([nH]c4ccc(OC)cc34)C2c2ccc(OC)cc2)cc1 (configuration not stated)	inconclusive: 1.41 µM [inhibitor, full curve, poor fit]
Cc1oc(-c2cccc(Cl)c2)nc1CN1CCCC(C(=O)NCc2ccc(F)cc2)C1 (configuration not stated)	inactive
CCn1c(C(=O)N2CCC(C(=O)NCCc3ccccc3)CC2)cc2sccc21	inconclusive: 3.16 µM [inhibitor, partial curve, poor fit]
O=C(NCc1cccc(F)c1)C1=Cc2cc(Br)ccc2OC1	inconclusive: 8.91 µM [inhibitor, partial curve, poor fit]
Cc1ccc(CNC(=O)c2cnc(N(C)C)nc2)cc1	inactive
COCCCNC(=O)c1c(NC(=O)c2nc(S(C)(=O)=O)ncc2Cl)sc2c1CCCC2	inactive
COc1ccc(OC)c(NC(=O)c2cc3c(s2)-c2ccccc2SC3)c1	inconclusive: 8.91 µM [inhibitor, full curve, poor fit]
Cc1cccc(OCc2nc(CC(=O)Nc3ccc(C)c(C)c3)cs2)c1	inconclusive: 3.98 µM [inhibitor, full curve, poor fit]
Cc1cc(Cl)ccc1NC(=O)c1cccc(NC(=O)N2CCSc3ncccc32)c1	inconclusive: 1 µM [inhibitor, partial curve, poor fit]
Cc1cccc(C)c1NC(=O)CCC(=O)N1Cc2ccccc2Oc2ncccc21	inconclusive: 0.631 µM [inhibitor, full curve, poor fit]
CCOc1cc(CNc2ccc(O)cc2)cc(Cl)c1OCc1ccccc1	inconclusive: 25.1 µM [inhibitor, partial curve, poor fit]
Cc1c(C(=O)O)oc2c1-c1nn(Cc3ccccc3Cl)cc1CC2	inconclusive: 31.6 µM [inhibitor, partial curve, poor fit]
O=C(NCc1ccccc1Cl)C1CCCN(c2nc3ccccc3n3cccc23)C1 (configuration not stated)	inconclusive: 7.08 µM [inhibitor, full curve, poor fit]

In the list so far, these have a COOH group:
Structure (SMILES)	Potency
COc1ccc2c(CNCCc3ccccc3OC)c(C(=O)O)n(Cc3ccc(F)cc3Cl)c2c1	inconclusive: 0.891 µM [inhibitor, full curve, poor fit]
Cc1c(C(=O)O)oc2c1-c1nn(Cc3ccccc3Cl)cc1CC2	inconclusive: 31.6 µM [inhibitor, partial curve, poor fit]
